Measured values taken from PubChem BioAssay (EPA / NIEHS).
For some assays here: What follows is the remainder of the data, with few or none of the hits. Records with an inconclusive call do not appear. This is a selection; strong and weak results do not stand in their true shares. Activity calls are given as the source filed them. Rule for the calls, unless noted: active = hit-call score of the fitted dose curve at least 0.9, where 1 is the maximum; inactive = score below 0.9.

By UniProt entry, the sequences of proteins in these tests, tags left out. Where a name states a change or a piece, a line headed by the entry shows the natural chain unless it says otherwise.
UniProt P49841: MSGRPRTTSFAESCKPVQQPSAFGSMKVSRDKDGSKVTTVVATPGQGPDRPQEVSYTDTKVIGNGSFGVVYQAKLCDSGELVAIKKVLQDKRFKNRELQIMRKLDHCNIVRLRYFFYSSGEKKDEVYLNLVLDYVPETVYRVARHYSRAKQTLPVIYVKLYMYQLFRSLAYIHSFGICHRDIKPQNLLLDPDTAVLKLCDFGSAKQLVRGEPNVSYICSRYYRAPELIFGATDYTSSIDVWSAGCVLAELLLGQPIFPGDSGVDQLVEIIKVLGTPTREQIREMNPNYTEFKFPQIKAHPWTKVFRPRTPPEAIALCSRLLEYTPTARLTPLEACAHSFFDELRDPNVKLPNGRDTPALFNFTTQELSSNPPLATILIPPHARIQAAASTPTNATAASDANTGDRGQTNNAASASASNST
UniProt Q5TCH4: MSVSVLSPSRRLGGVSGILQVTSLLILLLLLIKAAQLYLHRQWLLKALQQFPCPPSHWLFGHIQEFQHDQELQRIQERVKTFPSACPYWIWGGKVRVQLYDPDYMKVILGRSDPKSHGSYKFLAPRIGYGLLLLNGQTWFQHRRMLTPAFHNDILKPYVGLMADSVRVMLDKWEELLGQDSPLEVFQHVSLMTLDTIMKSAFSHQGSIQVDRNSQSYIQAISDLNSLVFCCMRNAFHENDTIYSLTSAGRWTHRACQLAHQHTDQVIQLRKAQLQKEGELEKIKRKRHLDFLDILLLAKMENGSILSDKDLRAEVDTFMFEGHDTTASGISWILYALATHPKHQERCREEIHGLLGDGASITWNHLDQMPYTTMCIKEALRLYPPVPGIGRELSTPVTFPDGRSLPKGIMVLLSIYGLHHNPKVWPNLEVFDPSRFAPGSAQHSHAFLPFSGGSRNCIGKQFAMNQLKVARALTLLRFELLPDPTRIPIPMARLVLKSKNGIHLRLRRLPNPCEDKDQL
UniProt P22680: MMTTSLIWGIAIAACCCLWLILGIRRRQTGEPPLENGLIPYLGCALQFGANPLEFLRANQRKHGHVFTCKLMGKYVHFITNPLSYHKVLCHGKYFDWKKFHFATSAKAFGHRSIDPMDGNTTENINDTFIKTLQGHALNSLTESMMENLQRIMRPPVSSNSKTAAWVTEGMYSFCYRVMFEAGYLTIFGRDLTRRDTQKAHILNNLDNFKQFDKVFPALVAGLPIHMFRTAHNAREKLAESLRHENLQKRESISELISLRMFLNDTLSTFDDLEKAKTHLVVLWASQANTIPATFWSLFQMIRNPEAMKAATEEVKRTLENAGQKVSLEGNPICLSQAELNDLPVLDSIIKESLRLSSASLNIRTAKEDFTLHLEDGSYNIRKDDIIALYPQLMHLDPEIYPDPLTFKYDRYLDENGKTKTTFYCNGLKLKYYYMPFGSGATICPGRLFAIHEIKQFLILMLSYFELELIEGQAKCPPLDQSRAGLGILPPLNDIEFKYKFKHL
UniProt P11473: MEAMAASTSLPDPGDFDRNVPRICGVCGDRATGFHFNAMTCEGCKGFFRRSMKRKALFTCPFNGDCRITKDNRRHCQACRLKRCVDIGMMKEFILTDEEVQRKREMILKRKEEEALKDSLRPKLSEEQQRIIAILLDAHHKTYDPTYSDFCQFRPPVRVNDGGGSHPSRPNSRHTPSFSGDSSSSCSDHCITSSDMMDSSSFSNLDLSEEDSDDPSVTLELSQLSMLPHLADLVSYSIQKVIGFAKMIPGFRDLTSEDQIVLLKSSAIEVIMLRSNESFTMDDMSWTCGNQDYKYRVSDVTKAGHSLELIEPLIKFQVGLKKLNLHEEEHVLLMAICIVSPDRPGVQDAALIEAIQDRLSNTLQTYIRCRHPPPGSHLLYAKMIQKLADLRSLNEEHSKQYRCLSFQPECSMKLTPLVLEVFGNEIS

Assays:
[1] = BSK_3C_SRB: Viability Assessment in the BioMAP Diversity Plus: 3C Assay (AID 2283023); conditions: primary human endothelial cells (HUVEC);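 note: fitted both ways against DMSO so a hit may be signal rise or drop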
How it was run: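 Human umbilical vein endothelial cells in the 3C system, treated 24 h. Total protein measured by 0.1% sulforhodamine B staining after 10% TCA fixation, read at 560 nm; bidirectional fit versus DMSO.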

[2] = read-out: Monocyte Chemoattractant Protein-1 (MCP1), CCL2 (gene 6347); test: BSK_CASM3C_MCP1: BioMAP Diversity Plus: CASM3C Assay for Monocyte Chemoattractant Protein-1 (MCP1) Biomarker Activity (AID 2283046); conditions: actives raise or lower the signal; primary human coronary artery smooth muscle cells;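 note: MCP-1 level quantified by ELISA 24 h after dosing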
[3] = read-out: serum amyloid A (SAA), SAA1 (gene 6288); test: BSK_CASM3C_SAA: BioMAP Diversity Plus: CASM3C Assay for serum amyloid A (SAA) Biomarker Activity (AID 2283049); conditions: actives raise or lower the signal; primary human coronary artery smooth muscle cells;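 note: SAA protein level quantified by ELISA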
[4] = BSK_LPS_SRB: Viability Assessment in the BioMAP Diversity Plus: LPS Assay (AID 2283079); conditions: primary human HUVEC with PBMC;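 note: total protein by sulforhodamine B absorbance as a cytotoxicity measure; measured one day after compound addition; fitted in both directions against DMSO so loss or gain of signal counts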
How it was run: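 Co-culture of human umbilical vein endothelial cells and PBMC, read 24 h after dosing. Total protein by 0.1% SRB staining after 10% TCA fixation, absorbance at 560 nm; bidirectional fit against DMSO.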

[5] = biological target: Glycogen synthase kinase-3 beta (Homo sapiens) (UniProt P49841); test: NVS_ENZ_hGSK3b: NovaScreen (NVS) Enzymatic Assay for human Glycogen Synthase Kinase-3 beta (GSK3b) (AID 2283165; active = hit-call score of the fitted dose curve at least 0.9, where 1 is the maximum)
How it was run: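 Recombinant enzyme with specific fluorescent substrate, 1 h, product separated by electrophoretic mobility shift. Primary duplicate screen at 25 uM; actives (e.g. 30% inhibition) followed in singleton concentration-response to 50 uM. Signal loss fitted versus DMSO.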

[6] = read-out: catalase (CAT), CAT (gene 847); test: LTEA_HepaRG_CAT: Life Technologies and Expression Analysis (LTEA) Assay for catalase (CAT) using HepaRG (AID 2283452); conditions: actives raise or lower the signal; mRNA level, 48 h;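 note: TaqMan qRT-PCR signal normalized to ACTB GAPDH and POLR2A housekeeping genes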
How it was run: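 Expression of CAT was quantified by TaqMan qRT-PCR with ACTB/GAPDH/POLR2A normalization after 48 h chemical exposure of HepaRG. Eight-point half-log series, top 100 uM, in 0.5% DMSO; gain or loss fitted against vehicle.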

[7] = read-out: ABC Transporter (ABCB11), ABCB11 (gene 8647); test: LTEA_HepaRG_ABCB11: Life Technologies and Expression Analysis (LTEA) Assay for ABC Transporter (ABCB11) using HepaRG (AID 2283463); conditions: actives raise or lower the signal; mRNA level, 48 h
How it was run: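 ABCB11 transcript levels quantified by TaqMan qRT-PCR against three housekeeping genes after 48 h chemical exposure of HepaRG cultures. Concentrations up to 100 uM in half-log steps, 0.5% DMSO vehicle; both induction and suppression scored.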

[8] = read-out: cysteine-aspartic acid protease (CASP8), CASP8 (gene 841); test: LTEA_HepaRG_CASP8: Life Technologies and Expression Analysis (LTEA) Assay for cysteine-aspartic acid protease (CASP8) using HepaRG (AID 2283480); conditions: actives raise or lower the signal; mRNA level, 48 h
How it was run: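 CASP8 transcript measured by TaqMan qRT-PCR with ACTB/GAPDH/POLR2A normalization, after 48 h chemical exposure of HepaRG cells in serum-free induction medium. Eight concentrations, top 100 uM, half-log steps, 0.5% DMSO vehicle; fits in both directions versus DMSO.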

CYP2C8 (gene 1558) = test: LTEA_HepaRG_CYP2C8: Life Technologies and Expression Analysis (LTEA) Assay for CYP2C8 using HepaRG (AID 2283483); conditions: actives raise or lower the signal; mRNA level, 48 h
How it was run: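 CYP2C8 expression measured by TaqMan qRT-PCR and normalized to three housekeeping genes. HepaRG cultures were treated for 48 h with an eight-point half-log series topping at 100 uM, vehicle 0.5% DMSO, duplicates; fitted both directions against DMSO.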

CYP4A11 (gene 1579) = test: LTEA_HepaRG_CYP4A11: Life Technologies and Expression Analysis (LTEA) Assay for CYP4A11 using HepaRG (AID 2283486); conditions: actives raise or lower the signal; mRNA level, 48 h
How it was run: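 Differentiated HepaRG cells, 48 h after plating, exposed in duplicate for 48 h to 8 half-log concentrations up to 100 uM in 0.5% DMSO in serum-free induction medium. CYP4A11 mRNA measured by TaqMan qRT-PCR, normalized to ACTB, GAPDH and POLR2A.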

[9] = read-out: Cytochrome P450 4A22 (Homo sapiens) (UniProt Q5TCH4); test: LTEA_HepaRG_CYP4A22: Life Technologies and Expression Analysis (LTEA) Assay for Cytochrome P450 4A22 (CYP4A22) using HepaRG (AID 2283495); conditions: actives raise or lower the signal; mRNA level, 48 h
How it was run: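 Differentiated HepaRG cells in serum-free induction medium exposed 48 h in duplicate to eight half-log concentrations up to 100 uM in 0.5% DMSO. CYP4A22 mRNA quantified by TaqMan qRT-PCR, normalized to ACTB, GAPDH and POLR2A; bidirectional fit versus DMSO.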

[10] = read-out: Cytochrome P450 7A1 (Homo sapiens) (UniProt P22680); test: LTEA_HepaRG_CYP7A1: Life Technologies and Expression Analysis (LTEA) Assay for Cytochrome P450 7A1 (CYP7A1) using HepaRG (AID 2283496); conditions: actives raise or lower the signal; mRNA level, 48 h
How it was run: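 HepaRG, 48 h exposure, 8-pt half-log series from 100 uM, 0.5% DMSO vehicle, duplicates. Readout: TaqMan qRT-PCR mRNA vs three housekeeping genes; bidirectional curve fit against DMSO baseline.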

[11] = read-out: Glutathione S-Transferase (GSTA2), GSTA2 (gene 2939); test: LTEA_HepaRG_GSTA2: Life Technologies and Expression Analysis (LTEA) Assay for Glutathione S-Transferase (GSTA2) using HepaRG (AID 2283497); conditions: actives raise or lower the signal; mRNA level, 48 h
How it was run: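 GSTA2 transcript levels came from Fluidigm TaqMan qRT-PCR normalized to three housekeeping genes, fitted in both directions against DMSO. HepaRG cultures received chemicals for 48 h in serum-free induction medium (0.5% DMSO), 8 half-log concentrations up to 100 uM, duplicate.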

[12] = read-out: Insulin Like Growth Factor 1 (IGF1), IGF1 (gene 3479); test: LTEA_HepaRG_IGF1: Life Technologies and Expression Analysis (LTEA) Assay for Insulin Like Growth Factor 1 (IGF1) using HepaRG (AID 2283506); conditions: actives raise or lower the signal; mRNA level, 48 h
How it was run: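 Cells are thawed, plated and cultured 48 h, then exposed in duplicate to chemical (highest 100 uM, half-log steps, 0.5% DMSO) for another 48 h. Total RNA is analysed by Fluidigm qRT-PCR for IGF1 expression relative to vehicle.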

[13] = read-out: Protein phosphatase 2A (PPP2R4), PTPA (gene 5524); test: LTEA_HepaRG_PPP2R4: Life Technologies and Expression Analysis (LTEA) Assay for Protein phosphatase 2A (PPP2R4) using HepaRG (AID 2283522); conditions: actives raise or lower the signal; mRNA level, 48 h
How it was run: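 Cells were plated, cultured 48 h, switched to serum-free induction medium, then dosed for 48 h (8 points, max 100 uM, 0.5% DMSO). RNA was isolated and PPP2R4 expression measured by TaqMan qRT-PCR.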

[14] = read-out: Phosphatase and tensin (PTEN), PTEN (gene 5728); test: LTEA_HepaRG_PTEN: Life Technologies and Expression Analysis (LTEA) Assay for Phosphatase and tensin (PTEN) using HepaRG (AID 2283523); conditions: actives raise or lower the signal; mRNA level, 48 h
How it was run: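 Read-out: TaqMan qRT-PCR of PTEN transcript, normalized to three housekeeping genes, fitted in both directions against 0.5% DMSO. Differentiated human HepaRG cultures received chemicals for 48 h, eight-point half-log series topping at 100 uM.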

[15] = read-out: solute carrier (SLCO1B1), SLCO1B1 (gene 10599); test: LTEA_HepaRG_SLCO1B1: Life Technologies and Expression Analysis (LTEA) Assay for solute carrier (SLCO1B1) using HepaRG (AID 2283530); conditions: actives raise or lower the signal; mRNA level, 48 h
How it was run: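 Differentiated human HepaRG cells were exposed for 48 h in serum-free induction medium to eight half-log concentrations, top 100 uM, in 0.5% DMSO. SLCO1B1 mRNA was measured by qRT-PCR, normalized to ACTB, GAPDH and POLR2A, and fitted bidirectionally against DMSO.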

[16] = Tanguay_ZF_120hpf_NC_legacy: (Legacy) Oregon State University Tanguay Lab 120 Hour Post-fertilization zebrafish Assay for Notochord and Tail Malformation (AID 2283656; active = hit-call score of the fitted dose curve at least 0.9, where 1 is the maximum)
How it was run: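 Binary scoring of notochord distortion by brightfield microscopy; embryos dying were not scored. Wild-type Tropical 5D embryos, chorion removed, exposed singly and statically from 6 to 120 hpf, 28C, sealed, 0.64% DMSO.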

[17] = biological target: human Vitamin D Receptor (VDR), VDR (gene 7421) (UniProt P11473); test: ATG_VDR_TRANS: Attagene TRANS-FACTORIAL HepG2 Assay for human Vitamin D Receptor (VDR) (AID 2283022; active = hit-call score of the fitted dose curve at least 0.9, where 1 is the maximum)
How it was run: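 HepG2 cells were transiently transfected with GAL4-UAS reporter units and a chimeric VDR-Gal4 construct, then dosed for 24 hours. Reporter mRNA was quantified by RT-PCR, fluorescent labeling, HpaI digestion and capillary electrophoresis; gain of signal analysed vs DMSO.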

[18] = BSK_CASM3C_SRB: Viability Assessment in the BioMAP Diversity Plus: CASM3C Assay (AID 2283050); conditions: primary human coronary artery smooth muscle cells;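 note: total protein by SRB staining as cytotoxicity measure in parallel cultures; cells exposed to compound for 24 h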

Measured: AC50

CCCCCCCCCCCCOS(=O)(=O)O
active: [5] 35.5 µM | [6] 87.7 µM | [7] 93.8 µM | CYP2C8 (gene 1558) 85.7 µM | CYP4A11 (gene 1579) 91.9 µM | [9] 89.6 µM | [10] 94.1 µM | [11] 76.5 µM | [15] 80.4 µM
not listed: [17] | [18]
inactive: all other assays above

CN(C)c1ccc(C(c2ccccc2)c2ccc(N(C)C)cc2)cc1
inactive: [17]
active: [18] 15.9 µM
